# Experimental data as given in paper PMC8586708, “SC75741, A Novel c-Abl Inhibitor, Promotes the Clearance of TDP25 Aggregates via ATG5-Dependent Autophagy Pathway” (Frontiers in Pharmacology, 2021).
# Protein sequences, listed by entry. Tags and fused reporters are not part of them. Residues count along the entry.
# UniProt Q9BXW4, residues 1-126: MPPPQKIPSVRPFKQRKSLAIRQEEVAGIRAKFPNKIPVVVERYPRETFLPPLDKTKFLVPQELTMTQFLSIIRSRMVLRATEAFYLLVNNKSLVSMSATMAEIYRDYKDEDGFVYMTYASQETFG
# No constants are given. Whether binding was seen depends on the method and setting. Binding seen in cells or lysates may run through a third protein. Some binding calls cover weakened binding; strength is not graded here.
# Biological target: Flag-p62 (UniProt Q13501)
# Assay: co-IP; HEK293 p62-/- cells transfected with GFP, GFP-TDP25, Flag and Flag-p62 for 24 h, with or without SC75741 (5 uM) for another 6 h; immunoprecipitation and immunoblot
substance,measurement,value
LC3C (in HEK293 p62-/- cells) (from UniProt Q9BXW4 1-126),binding,binds
